Experimental data: PubChem BioAssay AID652272 (Drosophila RNAi Screening Center, 2013)
Assay: 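Genes whose knock-down decreases or increases Hedgehog reporter output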 (primary screen). Cells: Drosophila clone 8 (Cl8) cells. Knock-down reagent: long dsRNA against Drosophila genes. Measurement: 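Plate reader light from a firefly reporter under a ptc promoter fragment that responds to Hedgehog, with Renilla light as transfection reference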. Reading the numbers: firefly Hh reporter signal: higher = more ptc reporter light; Renilla reference signal: higher = more Renilla control light. Active means: 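Hit when the z-score averaged over two replicates is under -2 or over +3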. Calls: active = hit: reporter lowered or raised; inactive = not a hit.
The screen tested about 21,000 reagents; shown is a random part of those with a known target gene and a result. Of all reagents, 503 (2.4%) were called active. 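Raw plate light values, not normalised; calls rest on replicate z-scores that were not deposited; hits include reporter decreases as well as increases.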 Unmarked entries are inactive. The numbers tell different reagents against one gene apart. Not given: the amount of reagent, the time to read-out.

gene	reagent	firefly Hh reporter signal, replicate 1	firefly Hh reporter signal, replicate 2	firefly Hh reporter signal, replicate 3	Renilla reference signal, replicate 1	Renilla reference signal, replicate 2
regucalcin	1	5.61e5	2.03e5		31148	4736
regucalcin	2	58658	2.05e5		1652	7565
sdt (stardust)	1	4.42e5	1.41e5		25686	3613
sdt (stardust)	2	5.00e5	1.35e5		32661	3160
sdt (stardust)	3	97399	4.28e5		3812	13760
sdt (stardust)	4	1.02e5	3.35e5		3818	11840
sdt (stardust)	5	1.34e5	4.52e5		4566	14741
sdt (stardust)	6	60829	91447		2153	3868
sdt (stardust)	7	41675	2.06e5		1584	7393
sdt (stardust)	8	86312	1.71e5		3303	6762
sdt (stardust)	9	1.24e5	3.61e5		4748	13104
kst (karst)	1	95392	1.05e5		4327	4274
Cnb (Centrobin)	1	95397	63075		4355	2613
CG13998	1	1.14e5	46016		3021	4548
Syb (Synaptobrevin)	1	77434	52864		2864	2181
GstT3 (Glutathione S transferase T3)	1	73977	3.04e5		1618	11865
Acox57D-p (acyl-Coenzyme A oxidase at 57D proximal)	1	1.09e5	83315		3993	3296
CG8206	1	95130	54390		2072	1170
CG1847	1	1.55e5	97398		3590	2372
CG1971	1	82285	94058		1642	2800
Fa2h (Fatty acid 2-hydroxylase)	1	78276	44084		1816	3873
Fa2h (Fatty acid 2-hydroxylase)	2	78803	60982		2035	4774
CG32206	1	6.69e5	2.84e5	1.24e5	5416	6604
CG32206	2	79712	88864		2914	2224
CG32206	3	92698	63195		2955	1693
CG32206	4	1.54e5	1.24e5		4598	3131
CG32206	5	74080	74425		3122	2362
CG12661	1	65477	2.08e5		2628	8121
JhI-21 (Juvenile hormone Inducible-21)	1	1.10e5	88993		4391	4168
CG32813	1	72355	2.94e5		1483	11607
Obp57c (Odorant-binding protein 57c)	1	89330	42235		2283	1696
Dgk (Diacyl glycerol kinase)	1	66789	1.47e5		1969	6077
Dgk (Diacyl glycerol kinase)	2	1.22e5	2.02e5		3168	8612
Dgk (Diacyl glycerol kinase)	3	87453	64647		2099	5877
Dgk (Diacyl glycerol kinase)	4	1.31e5	8.32e5	82886	3737	47201
tef (teflon)	1	2.13e5	1.14e5		8560	4122
CG44153	1	4.50e5	1.74e5		24051	7977
CG44153	2	1.14e5	48979		4365	2176
CG44153	3	1.06e5	28822		2720	3309
CG44153	4	1.27e5	61684		3255	6154
CG44153	5	88492	40003		2128	4035
CG44153	6	1.22e5	37720		3292	3846
CG44153	7	1.37e5	44930		3480	3992
CG5569	1	70740	43497		1496	3996
fs(2)ltoPP43 (female sterile (2) ltoPP43)	1	67280	44832		1601	4468
wb (wing blister)	1	19539 (active)	47717		957	3346
wb (wing blister)	2	99248	40860		2627	4192
Octbeta3R (Octopamine beta3 receptor)	1	56957	85810		2375	2290
Octbeta3R (Octopamine beta3 receptor)	2	80521	72048		2233	2036
CG4610	1	1.62e5	96329		2579	8736
CG11353	1	1.29e5	76936		5611	3410
CG10340	1	1.29e5	80757		5195	3109
CG10660	1	87191	16183	12555	1847	248
CG31776	1	1.19e5	91922		3104	6481
CG11964	1	1.06e5	73444		3920	2948
CG14277	1	1.13e5	47017		3124	5178
Alh (Alhambra)	1	68520			2253	
Alh (Alhambra)	2	57661	84931		2493	2432
Alh (Alhambra)	3	78237	73824		2941	2245

Entries above marked active, once more:
gene	reagent	firefly Hh reporter signal, replicate 1	firefly Hh reporter signal, replicate 2	firefly Hh reporter signal, replicate 3	Renilla reference signal, replicate 1	Renilla reference signal, replicate 2
wb (wing blister)	1	19539 (active)	47717		957	3346
